Reference: PubChem BioAssay AID1224827 (NIAID, 2016)

- Assay: 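Identify regulators of the macrophage TNF-alpha response to bacterial LPS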 (follow-up of hits)
- System: RAW264.7 G9 mouse macrophage reporter clone
- Reagents: single siRNA against mouse genes, 100 nM siRNA
- Duration: siRNA for 2 days, then LPS about 16 h
- Conditions: bacterial lipopolysaccharide (LPS), 10 ng/ml, cells fixed after overnight (about 16 h) stimulation
- Measurement: 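TNF promoter reporter red fluorescence in nuclei, background subtracted, normalised per plate and to non-targeting control siRNA, as z-scores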
- Scale: TNF reporter z-score, mean: higher = stronger Tnf promoter reporter signal; gene median z, three same-vendor siRNAs: higher = stronger Tnf reporter signal for the gene
- Active means: 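An siRNA is called active when its mean z-score over replicates is at least +2 or at most -2; control wells get no call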
The deposit covers about 3,800 reagents; shown is an unselected part. Over the whole deposit, about 2,200 (57%) were called active. 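Active means a strong reporter change in either direction; calls are per siRNA, not per gene; qiagen siRNAs gave weaker effects.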 Unmarked entries are inactive. The numbers tell different reagents against one gene apart. Not all columns of the deposit are shown.

no.	Target gene	reagent	TNF reporter z-score, mean	gene median z, three same-vendor siRNAs
1	Eif3f	1	-0.208	-2.22
2	Eif3f	2	-2.13 (active)	-2.22
3	Eif3f	3	-5.17 (active)	-2.22
4	Eif3f	4	-2.45 (active)	-3.75
5	Eif3f	5	-3.36 (active)	-3.75
6	Eif3f	6	-4.17 (active)	-3.75
7	Pcolce2	1	0.512	-0.645
8	Pcolce2	2	-0.418	-0.645
9	Pcolce2	3	-1.48	-0.645
10	Pcolce2	4	-0.148	-0.666
11	Pcolce2	5	-0.502	-0.666
12	Pcolce2	6	-1.44	-0.666
13	Disp2	1	3.64 (active)	-0.0029
14	Disp2	2	-0.0029	-0.0029
15	Disp2	3	-2.94 (active)	-0.0029
16	Disp2	4	2.79 (active)	0.0632
17	Disp2	5	2.5 (active)	0.0632
18	Disp2	6	-2.43 (active)	0.0632
19	Ly6g6d	1	-0.191	-2.5
20	Ly6g6d	2	-2.5 (active)	-2.5
21	Ly6g6d	3	-5.62 (active)	-2.5
22	Ly6g6d	4	1.32	0.204
23	Ly6g6d	5	-0.411	0.204
24	Ly6g6d	6	-0.825	0.204
25	Dsg1a	1	6.34 (active)	2.02
26	Dsg1a	2	1.5	2.02
27	Dsg1a	3	0.813	2.02
28	Dsg1a	4	2.32 (active)	0.364
29	Dsg1a	5	0.364	0.364
30	Dsg1a	6	0.514	0.364
31	Irf8	1	5.18 (active)	-3.25
32	Irf8	2	-3.25 (active)	-3.25
33	Irf8	3	-3.87 (active)	-3.25
34	Irf8	4	2.99 (active)	-0.957
35	Irf8	5	-1.77	-0.957
36	Irf8	6	-2.22 (active)	-0.957
37	Spag1	1	-3.52 (active)	-4.2
38	Spag1	2	-4.2 (active)	-4.2
39	Spag1	3	-6.28 (active)	-4.2
40	Spag1	4	3.89 (active)	-2.31
41	Spag1	5	-2.43 (active)	-2.31
42	Spag1	6	-2.56 (active)	-2.31
43	Paox	1	-1.71	-3.88
44	Paox	2	-3.97 (active)	-3.88
45	Paox	3	-4.23 (active)	-3.88
46	Paox	4	0.272	-1.19
47	Paox	5	-0.543	-1.19
48	Paox	6	-1.6	-1.19
49	Srrt	1	2.57 (active)	-3.13
50	Srrt	2	-3.13 (active)	-3.13
51	Srrt	3	-3.55 (active)	-3.13
52	Srrt	4	-0.162	-1.57
53	Srrt	5	-1.95	-1.57
54	Srrt	6	-2.01 (active)	-1.57
55	Traf2	1	0.947	-3.48
56	Traf2	2	-3.48 (active)	-3.48
57	Traf2	3	-5 (active)	-3.48
58	Traf2	4	2.26 (active)	0.778
59	Traf2	5	0.778	0.778
60	Traf2	6	0.86	0.778

In a second layout: entries from further up
Target gene	reagent	TNF reporter z-score, mean	gene median z, three same-vendor siRNAs
Paox	2	-3.97 (active)	-3.88
Paox	3	-4.23 (active)	-3.88
Paox	4	0.272	-1.19
Paox	5	-0.543	-1.19
Paox	6	-1.6	-1.19
Srrt	1	2.57 (active)	-3.13
Srrt	2	-3.13 (active)	-3.13
Srrt	3	-3.55 (active)	-3.13
Srrt	4	-0.162	-1.57
